Laboratory results reported in US20120251443A1, “IMPLANTABLE CONTRAST AGENTS AND METHODS” (THE BRIGHAM AND WOMEN'S HOSPITAL, INC., priority 2009, published 2012).

Tested on: human saphenous vein
Test: Quantitative MR relaxation rate measurements (R1, R2) of veins incubated in Gd-DTPA
Details: vein incubated in 5 mM, 3 T

Structure (SMILES): O=C([O-])CN(CCN(CC(=O)[O-])CC(=O)O)CCN(CC(=O)[O-])CC(=O)O.[Gd+3] [non-activated Gd-DTPA, Diethylenetriaminepentaacetic acid gadolinium^3+ dihydrogen]
- R1: 0.89 ± 0.03 s⁻¹
- R2: 10.5 ± 0.8 s⁻¹
